Experimental data from paper PMC4346921, “Identification of the Specific Interactors of the Human Lariat RNA Debranching Enzyme 1 Protein” (International Journal of Molecular Sciences, 2015).
No constants are given. Whether binding was seen depends on the method and setting. Binding seen in cells or lysates may run through a third protein. Here binding means that the protein was enriched with, or labelled near, the bait; the list need not be complete. Where a sequence is shown, tags or fusion partners need not be part of it.

Molecular target: T1, Flag-hDbr1 (human) (UniProt Q9UK59)
T1 sequence: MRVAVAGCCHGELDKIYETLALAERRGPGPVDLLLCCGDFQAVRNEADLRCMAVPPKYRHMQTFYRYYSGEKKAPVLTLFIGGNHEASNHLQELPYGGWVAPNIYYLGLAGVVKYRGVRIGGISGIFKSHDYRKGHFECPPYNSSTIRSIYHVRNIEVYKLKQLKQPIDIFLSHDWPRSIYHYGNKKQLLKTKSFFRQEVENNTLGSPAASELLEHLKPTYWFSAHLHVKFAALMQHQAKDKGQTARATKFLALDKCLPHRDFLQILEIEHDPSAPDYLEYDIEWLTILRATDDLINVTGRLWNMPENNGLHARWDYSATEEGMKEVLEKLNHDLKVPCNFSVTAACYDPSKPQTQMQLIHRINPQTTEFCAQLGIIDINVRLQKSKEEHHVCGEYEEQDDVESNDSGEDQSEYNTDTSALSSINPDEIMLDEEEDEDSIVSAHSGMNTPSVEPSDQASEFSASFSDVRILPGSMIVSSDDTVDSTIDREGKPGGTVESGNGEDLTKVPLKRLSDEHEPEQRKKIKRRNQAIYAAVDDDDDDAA
Assay: affinity purification with mass spectrometry; Flag-hDbr1 precipitated with anti-Flag M2 resin from HEK293T cell extract; SDS-PAGE, Coomassie staining, excised bands identified by MALDI-TOF/MS; Flag-vector extract as control

- binding: binds
B1: T7-His-hDrn1 (natural protein, human, UniProt Q69YN2-1 1-538, looked up)
chain: MAQKPLRLLACGDVEGKFDILFNRVQAIQKKSGNFDLLLCVGNFFGSTQDAEWEEYKTGIKKAPIQTYVLGANNQETVKYFQDADGCELAENITYLGRKGIFTGSSGLQIVYLSGTESLNEPVPGYSFSPKDVSSLRMMLCTTSQFKGVDILLTSPWPKCVGNFGNSSGEVDTKKCGSALVSSLATGLKPRYHFAALEKTYYERLPYRNHIILQENAQHATRFIALANVGNPEKKKYLYAFSIVPMKLMDAAELVKQPPDVTENPYRKSGQEASIGKQILAPVEESACQFFFDLNEKQGRKRSSTGRDSKSSPHPKQPRKPPQPPGPCWFCLASPEVEKHLVVNIGTHCYLALAKGGLSDDHVLILPIGHYQSVVELSAEVVEEVEKYKATLRRFFKSRGKWCVVFERNYKSHHLQLQVIPVPISCSTTDDIKDAFITQAQEQQIELLEIPEHSDIKQIAQPGAAYFYVELDTGEKLFHRIKKNFPLQFGREVLASEAILNVPDKSDWRQCQISKEDEETLARRFRKDFEPYDFTLDD
notes: Cwf19L1/hDrn1 cDNA (NM_018294), same fragment as in myc-/Flag-hDrn1, between BamHI and XhoI sites of pET-28a; pET-28a with BamHI/XhoI would place the His and T7 tags at the N-terminus (surmised); also called T7- and His-tagged hDrn1 protein; His-tagged hDrn1; source: E. coli BL21 (DE3) CodonPlus-RIPL, purified (Ni-NTA)
